In PubChem BioAssay AID272 (DTP/NCI, 2004):
The list does not hold the whole screen: it gathers tests that were run many times, whatever their T/C, doses with no T/C, and many T/C values between a quarter and a half above the control. Further doses and runs are listed elsewhere. T/C: endpoint of the treated group in % of that of the vehicle group. Some doses have a count of surviving animals in place of a T/C: the source holds a T/C of zero for them, seemingly a mark for toxic or unscored doses. Some doses without a T/C left all or most animals alive at the check, yet need not have been tolerated: the source hardly ever lists a survival T/C far under the control, and the zero likely stands for such cases as well. Survivors were counted at the toxicity check, usually on the fifth day, unless a day is given; later deaths do not show. Schedule codes are those of the source, taken here to give the interval after Q, in days (D) or hours (H), and the number of doses after X. Some entries were tested several times; their values stand side by side, smallest first. Additions like (4×) stand for listed records that agree. Some schedule codes hold Z or #, which are not explained here. Where survival is the endpoint, the PubChem record calls one and a half times the control and up active, and a quarter to a half above the control has no call in these data; cut-offs in other NCI protocols can differ.

System: Lewis lung carcinoma i.m., BDF1 mice, T/C %
Test: NCI In Vivo Anticancer Drug Screen. Data for tumor model Lewis Lung Carcinoma (intramuscular) in B6D2F1 (BDF1) mice
Method in brief: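 Transplantable tumour model; readout survival or tumour size; value = treated (T) / vehicle control (C).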

[1] = T/C endpoint: median survival time, dose: 1.0 mg/kg/injection, schedule: Q01DX011 (ip), vehicle: saline, higher T/C = longer survival
[2] = T/C endpoint: median survival time, dose: 2.0 mg/kg/injection, schedule: Q01DX011 (ip), vehicle: saline, higher T/C = longer survival
[3] = T/C endpoint: mean tumor weight, dose: 50.0 mg/kg/injection, schedule: Q01DX011 (ip), vehicle: other, higher T/C = larger tumour
[4] = T/C endpoint: median survival time, dose: 3.12 mg/kg/injection, schedule: Q01DX011 (ip), vehicle: other, higher T/C = longer survival
[5] = T/C endpoint: median survival time, dose: 12.5 mg/kg/injection, schedule: Q01DX011 (ip), vehicle: other, higher T/C = longer survival
[6] = T/C endpoint: median survival time, dose: 25.0 mg/kg/injection, schedule: Q01DX011 (ip), vehicle: other, higher T/C = longer survival
[7] = T/C endpoint: median survival time, dose: 4.0 mg/kg/injection, schedule: Q01DX011 (ip), vehicle: saline, higher T/C = longer survival
[8] = T/C endpoint: median survival time, dose: 8.0 mg/kg/injection, schedule: Q01DX011 (ip), vehicle: saline, higher T/C = longer survival

Nc1nc(N)c2nc(CNc3ccc(C(=O)NC(CCC(=O)O)C(=O)O)cc3)cnc2n1 (centres undefined)
survivor count (T/C endpoint: median survival time, dose: 130.0 micrograms/kg/injection, schedule: Q01DX011 (ip), vehicle: other, higher T/C = longer survival): 1 of 8
survivor count (T/C endpoint: median survival time, dose: 260.0 micrograms/kg/injection, schedule: Q01DX011 (ip), vehicle: other, higher T/C = longer survival): 0 of 8

CO[C@H](C(=O)[C@@H](O)[C@@H](C)O)[C@@H]1Cc2cc3cc(OC4CC(OC5CC(O)C(O)C(C)O5)C(O)C(C)O4)c(C)c(O)c3c(O)c2C(=O)[C@H]1OC1CC(OC2CC(OC3CC(C)(O)C(O)C(C)O3)C(O)C(C)O2)C(O)C(C)O1 (some centres undefined)
survivor count (T/C endpoint: mean tumor weight, dose: 1.0 mg/kg/injection, schedule: Q01DX011 (ip), vehicle: water, higher T/C = larger tumour): 2 of 8
survivor count (T/C endpoint: median survival time, dose: 0.12 mg/kg/injection, schedule: Q01DX011 (ip), vehicle: water, higher T/C = longer survival): 7 of 10
survivor count (T/C endpoint: median survival time, dose: 0.25 mg/kg/injection, schedule: Q01DX011 (ip), vehicle: water, higher T/C = longer survival): 9 of 10
survivor count (T/C endpoint: median survival time, dose: 0.5 mg/kg/injection, schedule: Q01DX011 (ip), vehicle: water, higher T/C = longer survival): 10 of 10
survivor count (T/C endpoint: median survival time, dose: 1.0 mg/kg/injection, schedule: Q01DX009 (ip), vehicle: water, higher T/C = longer survival): 6 of 10
survivor count (T/C endpoint: median survival time, dose: 1.0 mg/kg/injection, schedule: Q01DX011 (ip), vehicle: water, higher T/C = longer survival): 4 of 10, 4 of 8, 7 of 10
survivor count (T/C endpoint: median survival time, dose: 2.0 mg/kg/injection, schedule: Q01DX009 (ip), vehicle: water, higher T/C = longer survival): 1 of 10 and 6 of 10
survivor count (T/C endpoint: median survival time, dose: 2.0 mg/kg/injection, schedule: Q01DX011 (ip), vehicle: water, higher T/C = longer survival): 0 of 10

N=c1ccn2c(n1)OC1C(OP(=O)(O)O)C(CO)OC12 (centres undefined)
survivor count (T/C endpoint: mean tumor weight (est.), dose: 400.0 mg/kg/injection, schedule: Q01DX011 (oral), vehicle: water, higher T/C = larger tumour): 5 of 8
survivor count (T/C endpoint: mean tumor weight (est.), dose: 800.0 mg/kg/injection, schedule: Q01DX011 (oral), vehicle: water, higher T/C = larger tumour): 3 of 8
survivor count (T/C endpoint: median survival time, dose: 400.0 mg/kg/injection, schedule: Q01DX011 (oral), vehicle: water, higher T/C = longer survival): 5 of 8
survivor count (T/C endpoint: median survival time, dose: 800.0 mg/kg/injection, schedule: Q01DX011 (oral), vehicle: water, higher T/C = longer survival): 3 of 8

Cc1cc(/C=C/c2cc[n+](C)c3ccccc23)c(O)c2ncccc12
survivor count (T/C endpoint: mean tumor weight, dose: 3.0 mg/kg/injection, schedule: Q01DX011 (ip), vehicle: saline, higher T/C = larger tumour): 5 of 8
survivor count (T/C endpoint: mean tumor weight, dose: 12.0 mg/kg/injection, schedule: Q01DX011 (ip), vehicle: saline, higher T/C = larger tumour): 3 of 8
survivor count (T/C endpoint: mean tumor weight, dose: 24.0 mg/kg/injection, schedule: Q01DX011 (ip), vehicle: saline, higher T/C = larger tumour): 3 of 8
survivor count (T/C endpoint: median survival time, dose: 3.0 mg/kg/injection, schedule: Q01DX011 (ip), vehicle: saline, higher T/C = longer survival): 5 of 8
survivor count (T/C endpoint: median survival time, dose: 12.0 mg/kg/injection, schedule: Q01DX011 (ip), vehicle: saline, higher T/C = longer survival): 3 of 8
survivor count (T/C endpoint: median survival time, dose: 24.0 mg/kg/injection, schedule: Q01DX011 (ip), vehicle: saline, higher T/C = longer survival): 3 of 8
survivor count (T/C endpoint: median survival time, dose: 48.0 mg/kg/injection, schedule: Q01DX011 (ip), vehicle: saline, higher T/C = longer survival): 0 of 8

COC(=O)C[C@](O)(CCC(C)(C)O)C(=O)O[C@@H]1C(OC)=C[C@]23CCCN2CCc2cc4c(cc2[C@H]13)OCO4
survivor count (T/C endpoint: mean tumor weight, dose: 1.0 mg/kg/injection, schedule: Q01DX011 (ip), vehicle: saline, higher T/C = larger tumour): 3 of 8
survivor count (T/C endpoint: mean tumor weight, dose: 2.0 mg/kg/injection, schedule: Q01DX011 (ip), vehicle: water, higher T/C = larger tumour): 5 of 8
survivor count [1]: 3 of 8
survivor count [2]: 0 of 8

CCCCn1cnc2c(=S)nc[nH]c21
survivor count (T/C endpoint: mean tumor weight, dose: 3.12 mg/kg/injection, schedule: Q01DX011 (ip), vehicle: other, higher T/C = larger tumour): 5 of 8
survivor count (T/C endpoint: mean tumor weight, dose: 12.5 mg/kg/injection, schedule: Q01DX011 (ip), vehicle: other, higher T/C = larger tumour): 5 of 8
survivor count (T/C endpoint: mean tumor weight, dose: 25.0 mg/kg/injection, schedule: Q01DX011 (ip), vehicle: other, higher T/C = larger tumour): 3 of 8
survivor count [3]: 3 of 8
survivor count (T/C endpoint: mean tumor weight, dose: 100.0 mg/kg/injection, schedule: Q01DX011 (ip), vehicle: other, higher T/C = larger tumour): 2 of 8
survivor count [4]: 5 of 8
survivor count [5]: 5 of 8
survivor count [6]: 3 of 8 (2×)
survivor count (T/C endpoint: median survival time, dose: 50.0 mg/kg/injection, schedule: Q01DX011 (ip), vehicle: other, higher T/C = longer survival): 3 of 8
survivor count (T/C endpoint: median survival time, dose: 100.0 mg/kg/injection, schedule: Q01DX011 (ip), vehicle: other, higher T/C = longer survival): 2 of 8
survivor count (T/C endpoint: median survival time, dose: 200.0 mg/kg/injection, schedule: Q01DX011 (ip), vehicle: other, higher T/C = longer survival): 0 of 8
survivor count (T/C endpoint: median survival time, dose: 400.0 mg/kg/injection, schedule: Q01DX011 (ip), vehicle: other, higher T/C = longer survival): 0 of 8

CCCCCCCCCCCCCCCCCC[N+](C)(C)C (tested in a mixture with another compound)
survivor count (T/C endpoint: mean tumor weight, dose: 4.0 mg/kg/injection, schedule: Q01DX011 (ip), vehicle: saline, higher T/C = larger tumour): 2 of 8
survivor count [1]: 7 of 8
survivor count [7]: 2 of 8
survivor count [8]: 0 of 8

CC[C@](O)(C(=O)O)c1cc2n(c(=O)c1CO)Cc1cc3ccccc3nc1-2
survivor count (T/C endpoint: median survival time, dose: 0.25 mg/kg/injection, schedule: Q01DX011 (ip), vehicle: saline, higher T/C = longer survival): 6 of 8
survivor count [2]: 9 of 10
survivor count [7]: 2 of 10 and 5 of 10
survivor count [8]: 0 of 10 and 2 of 10

CCc1ccc(/C=C/c2ccc(O)c3ncccc23)[n+](C)c1
survivor count (T/C endpoint: median survival time, dose: 16.0 mg/kg/injection, schedule: Q01DX011 (ip), vehicle: saline, higher T/C = longer survival): 7 of 8
survivor count (T/C endpoint: median survival time, dose: 32.0 mg/kg/injection, schedule: Q01DX011 (ip), vehicle: saline, higher T/C = longer survival): 0 of 8

CC(=O)[C@@]1(O)CC[C@H]2[C@@H]3C[C@H](C)C4=CC(=O)C=C[C@]4(C)[C@@]3(F)[C@@H](O)C[C@@]21C
survivor count (T/C endpoint: mean tumor weight, dose: 100.0 mg/kg/injection, schedule: Q01DX011 (ip), vehicle: steroid suspending solution, higher T/C = larger tumour): 4 of 8
survivor count (T/C endpoint: median survival time, dose: 12.5 mg/kg/injection, schedule: Q01DX011 (ip), vehicle: steroid suspending solution, higher T/C = longer survival): 6 of 8
survivor count (T/C endpoint: median survival time, dose: 50.0 mg/kg/injection, schedule: Q01DX011 (ip), vehicle: steroid suspending solution, higher T/C = longer survival): 6 of 8 and 7 of 8
survivor count (T/C endpoint: median survival time, dose: 100.0 mg/kg/injection, schedule: Q01DX011 (ip), vehicle: steroid suspending solution, higher T/C = longer survival): 3 of 8 and 4 of 8

N=C(N)SCc1c2ccccc2c(CSC(=N)N)c2ccccc12
survivor count (T/C endpoint: mean tumor weight, dose: 100.0 mg/kg/injection, schedule: Q01DX011 (ip), vehicle: saline, higher T/C = larger tumour): 4 of 8
survivor count (T/C endpoint: median survival time, dose: 50.0 mg/kg/injection, schedule: Q01DX011 (ip), vehicle: saline, higher T/C = longer survival): 8 of 8
survivor count (T/C endpoint: median survival time, dose: 100.0 mg/kg/injection, schedule: Q01DX011 (ip), vehicle: saline, higher T/C = longer survival): 4 of 8
survivor count (T/C endpoint: median survival time, dose: 200.0 mg/kg/injection, schedule: Q01DX011 (ip), vehicle: saline, higher T/C = longer survival): 0 of 8

Nc1nc2n[nH]nc2c(=O)[nH]1
survivor count [3]: 5 of 8
survivor count (T/C endpoint: mean tumor weight, dose: 200.0 mg/kg/injection, schedule: Q01DX011 (ip), vehicle: other, higher T/C = larger tumour): 3 of 8

CC(C)(C)CC(C)(C)NCC(O)COc1ccc(C(C)(C)c2ccc(OCC(O)CNC(C)(C)CC(C)(C)C)cc2)cc1 (centres undefined)
survivor count (T/C endpoint: mean tumor weight (est.), dose: 6.25 mg/kg/injection, schedule: Q01DX011 (ip), vehicle: other, higher T/C = larger tumour): 2 of 8
survivor count [4]: 8 of 8
survivor count (T/C endpoint: median survival time, dose: 6.25 mg/kg/injection, schedule: Q01DX011 (ip), vehicle: other, higher T/C = longer survival): 2 of 8
survivor count [5]: 0 of 8
survivor count [6]: 0 of 8

CC(=O)C(O)N1C(=O)C=CC1=O (centres undefined)
T/C (T/C endpoint: median survival time, dose: 0.31 mg/kg/injection, schedule: Q01DX011 (ip), vehicle: water, higher T/C = longer survival): 127 % of control
T/C (T/C endpoint: median survival time, dose: 0.31 mg/kg/injection, schedule: Q#A X022 (ip), vehicle: water, higher T/C = longer survival): 130 % of control
T/C (T/C endpoint: median survival time, dose: 0.62 mg/kg/injection, schedule: Q#A X022 (ip), vehicle: water, higher T/C = longer survival): 125 % of control
T/C (T/C endpoint: median survival time, dose: 1.25 mg/kg/injection, schedule: Q01DX011 (ip), vehicle: water, higher T/C = longer survival): 132 % of control
survivor count (T/C endpoint: median survival time, dose: 5.0 mg/kg/injection, schedule: Q01DX011 (ip), vehicle: water, higher T/C = longer survival): 4 of 8
survivor count (T/C endpoint: median survival time, dose: 10.0 mg/kg/injection, schedule: Q01DX011 (ip), vehicle: water, higher T/C = longer survival): 0 of 8
survivor count (T/C endpoint: median survival time, dose: 10.0 mg/kg/injection, schedule: Q#A X022 (ip), vehicle: water, higher T/C = longer survival): 0 of 8
